This passage reports binding results from patent US20250304712A1.

By UniProt entry, the sequences of proteins in these tests, tags left out. Residues count along the entry.
UniProt Q17RY6, residues 18-138: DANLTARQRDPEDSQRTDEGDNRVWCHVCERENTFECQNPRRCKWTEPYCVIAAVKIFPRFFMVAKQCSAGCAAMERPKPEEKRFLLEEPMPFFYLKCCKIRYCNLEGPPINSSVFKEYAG

The target in test [1] is recombinant LY6K protein with histidine and Strep tags (human) (UniProt Q17RY6). Kind of test: ELISA on recombinant LY6K. A general note: An ELISA detects its analyte on a solid surface through an enzyme-linked reagent.
The target is the same in test [2]. Kind of test: QCM biosensor, immobilized recombinant LY6K; Bmax highest of the three.
Test [3] shares this target. Kind of test: quartz crystal microbalance (QCM) biosensor, immobilized LY6K antigen.
Test [4] has the same target. Nature of the test: QCM biosensor, immobilized recombinant LY6K; Bmax second of the three.

Results are given in words; binding and its absence hold for the method and conditions named. Some binding calls cover weakened binding; strength is not graded here.

B1: murine anti-LY6K antibody 28C1 (antibody, V domains shown)
VH: QIQLVQSGPELKKPGETVKISCKTSGYTFTNFAMNWVKQTPGKGLRYMGWINTNTGEPTYVEEFKGRFAFSLETSASTAYLQISNLKNEDTATYFCTREWRRSYYFDYWGQGTSLTVSS
VL: DIQMTQTPLSLPVSLGDQASISCRSSQTILHSNGNTYLEWYLQKPGQSLKLLIYKVSNRLSGVPDRFSGSGSGTDFTLKISRVEAEDLGVYYCFQGSHDPFTFGSGTKLE
For B1, the binding result in test [1], in test [2] and in test [3] was “binds” in each case.

B2: humanized 22C-G8 (antibody, V domains shown)
VH: QVQLVQSGAEVKKPGASVKVSCKASGYTFTSYWMHWVRQAPGQGLEWIGEINPSNGGANYNEKFKRRATMTVDKSTSTVYMELSSLRSEDTAVYYCTMGGNFFFAYWGQGTLVTVSS
VL: DVVMTQSPLSLSVTLGQPASISCKSSQSLLASDGKTYLNWFQQRPGQSPRRLIYLVSKLDSGVPDRFSGSGSGTDFTLKISRVEAEDVGVYYCWQGSHFPLTFGGGTKVE
Consider B2, for which the binding entry in test [1] was “binds”.

B3: murine anti-LY6K antibody G57 (antibody, V domains shown)
VH: EVQLVESGGDLVKPGGSLKLSCAASGFTFNSYGMSWVRQTPDKRLEWVATISSGGTYTYYSDSVKGRFTISRDNAKNILYLHMSSLKSEDTAMYYCARHDWDFFDYWGQGTTLTVSS
VL: DVVMTQTPLSLPVSLGDQASISCRSSQSLVHTDGDTYLNWYLQKPGQSPKLLIYKVSNRFSGVPDRFSGSGSGTDFTLKIRRVEAEDLGVYFCSQNTHVYTFGGGTKLE
Take B3: the binding entry in test [1], in test [4] and in test [3] was “binds” each time.
